Results from PubChem BioAssay AID977628 (Broad Institute, 2014).
In all, about 1,900 compounds went through this assay and fewer than 10 were called active. The inconclusive results got no clear call from the source; some entries with a clear call stand among them for comparison.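 Rule for the calls: active = compound lowering the normal-ribosome reporter at least twice as much as the humanized-ribosome reporter, growth loss under a set limit; inconclusive = no clear call, values can overlap the other calls; inactive = the rest.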

Assay: growth of wild-type and h24-humanized E. coli strains – h24 mutant RFP vs wild-type GFP, cherry-pick, dose response (AID 977628)
Conditions: E. coli WT GFP strain growth, fluorescence, 24 h; at 50 µM (top of the series) unless noted

Compound	activity change, negative = inhibition
C[C@H]1CN([C@@H](C)CO)C(=O)c2c(c3ccccc3n2C)-c2ccccc2CO[C@@H]1CN(C)Cc1ccccc1	inconclusive: 5.28
COc1ccccc1C1CCN(C(=O)c2ccco2)CC1	inconclusive: -6.45
Cc1ccc(-c2c[n+](CC(=O)OCc3ccccc3)c3n2CCC3)cc1	inactive: -8.44
CSc1nc(N)nc(SC2C=CCCC2)c1C#N (stereo not given)	inconclusive: -29
O=C(O)CC(CC(=O)Nc1ccc(Oc2ccccc2)cc1)c1ccccc1 (stereo not given)	inactive: -22.5
Cc1ccc(NC(=O)C2CCCN(c3ncnc4c3nc3n4CCCCC3)C2)cc1Cl (stereo not given)	inconclusive: -16.8
Cc1ccc(N2C(=S)NC3c4cc(Cl)ccc4OC2(C)C3C(=O)N(C)C)cc1 (stereo not given)	inconclusive: -18.1
O=C(COC(=O)[C@@H]1CCCN1S(=O)(=O)c1ccccc1F)c1ccccc1	inconclusive: -15.1
Cn1c(=O)c2c(nc(N3CCOCC3)n2C/C=C/c2ccccc2)n(C)c1=O	inactive: -11.2
CCc1cc2cc(OC)ccc2nc1SCC(=O)Nc1cc(OC)c(OC)cc1C(=O)O	inactive: -9.76
COCCn1c(SCC(=O)Nc2ccccc2OC)nc2ccccc21	inconclusive: -2.99
CCc1nnc(NS(=O)(=O)c2ccc(NC(=O)c3cccc4ccccc34)cc2)s1	inconclusive: -6.33
O=C(CN(CCO)c1ccccc1)Nc1cccc(S(=O)(=O)N2CCCC2)c1	inconclusive: -24.3
O=C(c1cccc2c1-c1ccccc1C2)N1CCCCC1	inconclusive: -5.91
CC(C)CC#Cc1ccc([C@H]2[C@@H](CO)N3CCCCN(S(=O)(=O)Cc4ccccc4)C[C@H]23)cc1	inconclusive: -101
O=C(Nc1cccc(Cl)c1)N1C[C@H]2[C@@H](c3ccccc31)[C@@H](CO)N2C(=O)c1ccncc1	inconclusive: -29.5
Cc1ccccc1NS(=O)(=O)c1cc(C(=O)NCCC2=CCCCC2)ccc1C	inconclusive: -11.4
Cc1ccc2nc(SCC(=O)Nc3c(F)cccc3F)[nH]c2c1	inconclusive: -34
COc1ccc(-c2csc(C)n2)cc1Br	inactive: -12.6
O=C(NCc1cccs1)c1ccc(Cl)c(S(=O)(=O)N2CCCC2)c1	inactive: 0.255
CN(Cc1ccc(F)cc1)C(=O)CN1CCN(S(=O)(=O)c2ccc3c(c2)OCCCO3)CC1	inconclusive: -26.6
Nc1ccccc1Nc1ccc([N+](=O)[O-])cc1[N+](=O)[O-]	inactive: -18.7
CCc1ccc2[nH]c(C(=O)Nc3ccc4c(c3)OCO4)cc2c1	inconclusive: -23
Cc1c(Cc2ccccc2)sc(NC(=O)Cc2ccccc2)c1C(N)=O	inactive: -10.6
Cc1noc(C)c1NC(=O)Nc1ccc2c(c1)C(=O)N([C@H](C)CO)C[C@@H](C)[C@@H](CN(C)C(=O)Nc1ccc3c(c1)OCO3)OCCCC[C@@H](C)O2	inconclusive: -20.8
CC(=O)Nc1ccc(OCc2nnc(-c3ccccc3)o2)cc1	inactive: -17.3
COc1ccc(OC)c(NC(=O)c2c3c(nc4ccccc24)CCC3)c1	inconclusive: -12.8
CC(C)OCCCNC(=O)c1ccc(CS(=O)(=O)c2cccc(C(F)(F)F)c2)o1	inconclusive: -6.17

A second format for part of the listing above.

| Compound | activity change, negative = inhibition |
| --- | --- |
| O=C(O)CC(CC(=O)Nc1ccc(Oc2ccccc2)cc1)c1ccccc1 (stereo not given) | inactive: -22.5 |
| Cc1ccc(NC(=O)C2CCCN(c3ncnc4c3nc3n4CCCCC3)C2)cc1Cl (stereo not given) | inconclusive: -16.8 |
| Cc1ccc(N2C(=S)NC3c4cc(Cl)ccc4OC2(C)C3C(=O)N(C)C)cc1 (stereo not given) | inconclusive: -18.1 |
| O=C(COC(=O)[C@@H]1CCCN1S(=O)(=O)c1ccccc1F)c1ccccc1 | inconclusive: -15.1 |

The list continues:

Compound	activity change, negative = inhibition
COc1ccc(-c2cn3cc(Cl)ccc3n2)cc1OC	inconclusive: -46.8
O=C(Nc1cccc(O)c1)c1cccc(S(=O)(=O)Nc2cccc(O)c2)c1	inactive: -3.23
C[C@@H]1CN([C@@H](C)CO)C(=O)CCCn2nncc2CO[C@H]1CN(C)C(=O)Nc1cccc(C(F)(F)F)c1	inconclusive: -17.9
Fc1ccc(CSc2nnc(-c3ccco3)o2)cc1	inactive: 1.38
O=C(Nc1cc(S(=O)(=O)N2CCOCC2)ccc1N1CCOCC1)c1ccc([N+](=O)[O-])s1	inactive: -1.88
C[C@@H]1CN([C@@H](C)CO)C(=O)c2cc(NC(=O)C3CC3)ccc2O[C@H]1CN(C)C(=O)Nc1ccc(C(F)(F)F)cc1	inactive: -12.8
Cc1ccccc1CSc1nnc(-c2ccccn2)n1C	inconclusive: -13.7
COc1cccc(NC(=O)COC(=O)Cc2ccccc2[N+](=O)[O-])c1	inconclusive: -6.82
c1ccc(Sc2ncnc3ccccc23)cc1	inconclusive: -15.5
Cc1ccc(S(=O)(=O)N2CCCN(S(=O)(=O)c3ccccc3Br)CC2)cc1	inconclusive: -42.4
O=C(Nc1cccc(S(=O)(=O)c2cccc(NC(=O)C3CC3)c2)c1)C1CC1	inactive: -9.13
COC(=O)C[C@H]1C[C@@H]2c3cc(NC(=O)Nc4ccc(C(F)(F)F)cc4)ccc3O[C@@H]2[C@H](CO)O1	inconclusive: -21.7
Cc1nn(-c2ccc(N3CCCCC3)nn2)c(C)c1CCC(=O)Nc1ccc(F)cc1	inconclusive: -10.1
COc1ccc(CNC(=O)Cc2cn(C)c3ccccc23)c(OC)c1	inactive: -6.29
Cc1ccc(NC(=O)c2c(C)noc2-c2snnc2C)cc1	inconclusive: -28.4
CCOC(=O)c1nc(S(C)(=O)=O)ncc1Cl	inconclusive: -17.5
O=C(Nc1cccnc1)c1sc2cccc(F)c2c1Cl	inactive: -2.74
COc1cc(NC(=O)c2ccc(Cl)cc2)c(OC)cc1NC(=O)CN1CCCCC1	inactive: -10.1
O=C(CSc1ccccc1)NCCCc1ccccc1	inconclusive: -14.5
O=C(COC(=O)CCSc1ccc(F)cc1)NCc1ccc(F)cc1	inconclusive: -20.4
COc1ccc(CN2C(=O)NC(C)(c3ccc(C)cc3)C2=O)cc1F (stereo not given)	inconclusive: -23.3
O=C(O)c1ccc(Cl)c(S(=O)(=O)Nc2ccccc2Cc2ccccc2)c1	inconclusive: -16.6
c1ccc2c(c1)CSc1ccccc1N2	inactive: -11.8
Nc1nc(-c2cc(-c3ccccc3)no2)cs1	inconclusive: -17
CCCCc1cc2c(cc1NC(=O)CN1CCCCC1)OCCO2	inactive: -10.2
COc1ccc(CCCc2nc3ccccc3[nH]2)cc1	inconclusive: -11
CC(C)(C)S(=O)(=O)Cc1nc(-c2ccc(Cl)c(Cl)c2)cs1	inactive: -2.62
